Assay results reported in patent US20090041754A1.
No constants are given. Whether binding was seen depends on the method and setting. Binding seen in cells or lysates may run through a third protein. Some entries that bind do so weakly or less than the wild type.

Sequences of proteins named here, by UniProt entry; tags and fusion partners are left off. A change or cut given only in a name is not applied to a line headed by its entry.
UniProt P03372: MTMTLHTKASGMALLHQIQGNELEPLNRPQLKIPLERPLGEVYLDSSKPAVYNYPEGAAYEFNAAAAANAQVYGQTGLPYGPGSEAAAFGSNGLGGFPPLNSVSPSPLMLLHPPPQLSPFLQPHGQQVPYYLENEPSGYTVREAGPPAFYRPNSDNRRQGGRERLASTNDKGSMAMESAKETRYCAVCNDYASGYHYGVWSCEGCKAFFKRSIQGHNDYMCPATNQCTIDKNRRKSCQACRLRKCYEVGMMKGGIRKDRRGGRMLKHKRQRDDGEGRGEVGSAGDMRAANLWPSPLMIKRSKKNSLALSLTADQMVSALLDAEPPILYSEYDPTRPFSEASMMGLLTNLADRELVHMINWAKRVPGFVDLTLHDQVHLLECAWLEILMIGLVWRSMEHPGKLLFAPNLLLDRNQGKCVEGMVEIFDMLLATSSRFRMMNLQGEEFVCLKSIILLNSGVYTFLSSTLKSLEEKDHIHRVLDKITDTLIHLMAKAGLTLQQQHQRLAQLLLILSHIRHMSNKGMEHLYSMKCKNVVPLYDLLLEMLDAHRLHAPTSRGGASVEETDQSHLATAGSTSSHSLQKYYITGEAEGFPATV
UniProt P34932: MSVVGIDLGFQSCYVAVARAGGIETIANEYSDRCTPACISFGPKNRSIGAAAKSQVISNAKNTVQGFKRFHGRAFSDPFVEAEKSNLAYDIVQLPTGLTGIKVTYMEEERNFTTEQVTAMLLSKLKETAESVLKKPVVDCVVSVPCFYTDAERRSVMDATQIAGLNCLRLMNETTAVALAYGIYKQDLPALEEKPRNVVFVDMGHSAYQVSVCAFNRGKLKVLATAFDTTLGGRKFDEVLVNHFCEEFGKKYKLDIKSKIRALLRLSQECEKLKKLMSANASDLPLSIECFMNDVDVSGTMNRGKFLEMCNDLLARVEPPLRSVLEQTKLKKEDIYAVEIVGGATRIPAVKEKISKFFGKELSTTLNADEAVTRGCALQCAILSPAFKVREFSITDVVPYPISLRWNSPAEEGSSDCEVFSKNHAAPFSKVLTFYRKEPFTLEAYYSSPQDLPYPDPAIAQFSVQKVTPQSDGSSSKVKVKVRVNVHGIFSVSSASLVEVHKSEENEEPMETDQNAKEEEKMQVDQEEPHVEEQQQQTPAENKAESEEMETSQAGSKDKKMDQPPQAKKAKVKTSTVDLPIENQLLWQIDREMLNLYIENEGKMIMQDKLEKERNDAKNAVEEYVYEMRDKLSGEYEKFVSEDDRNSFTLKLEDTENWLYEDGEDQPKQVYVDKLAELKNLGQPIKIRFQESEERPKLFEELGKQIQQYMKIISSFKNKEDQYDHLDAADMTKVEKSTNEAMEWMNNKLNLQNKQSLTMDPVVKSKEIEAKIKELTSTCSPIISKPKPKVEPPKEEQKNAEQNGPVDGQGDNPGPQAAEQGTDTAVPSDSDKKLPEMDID

Columns and labels:
[1] = target: human estrogen receptor alpha with C-terminal V5 epitope and His 6 tag (from pcDNA-ER) (human) (UniProt P03372); assay: GST pull-down, western blot (FIG. 1, lanes 3 to 6)
[2] = target: human estrogen receptor alpha with C-terminal V5 epitope and His 6 tag (from pcDNA-ER) (human) (UniProt P03372); assay: GST pull-down from ER expression COS-7 cell extract, western blot with anti-ERα antibody, with or without 10 µM E2

## GST-HSPA4 (from UniProt P34932 1-840)
[1]
  binding: binds
[2]
  binding: binds
